Tested on: H1299 cells
Assay: CCK-8 cell viability, H1299
Assay type: cell-based
Conditions: Homo sapiens, NCI-H1299, H1299 (wild-type), read-out: Cellular Antiproliferative Activity (IC50, μM) H1299
Protocol: All the cell viability assays were performed according to the CCK-8 method. The cells were seeded at a density of 5 to 8 × 10^4 cells/mL in 96-well plates in growth medium supplemented with 10% serum at 37 °C with 5% CO2 for one day. After 12 h of incubation, 100 μL of medium was removed, and 100 μL of sample solution with different concentrations of inhibitor was added and then the cells were incubated for 48 or 72 h. Subsequently, 10 μL of CCK-8 reagent (Biotool Company, Kirchberg, Switzerland, 5.0 mg/mL) dissolved in phosphate-buffered saline (PBS) was added and the cells were incubated for another 4 h. The absorbance was read at 450 nm with a microplate reader (Thermo Fisher Scientific, Waltham, MA, USA). The data were calculated using GraphPad Prim version 5.0.

With `COc1cc2ncnc(Nc3ccc(F)c(Cl)c3)c2cc1OCCCN1CCOCC1` [Gefitinib, gefitinib] the IC50 was 10.8 µM.

Reference: PMC6274483, “Novel Selective and Potent EGFR Inhibitor that Overcomes T790M-Mediated Resistance in Non-Small Cell Lung Cancer” (Molecules, 2016)
